Measurements from the supplement of paper PMC10849652.
The list shows a part of the results.

Amino acid sequences for entries named in this document (tags omitted). A change or cut given only in a name is not applied to a line headed by its entry.
UniProt Q8N6G5: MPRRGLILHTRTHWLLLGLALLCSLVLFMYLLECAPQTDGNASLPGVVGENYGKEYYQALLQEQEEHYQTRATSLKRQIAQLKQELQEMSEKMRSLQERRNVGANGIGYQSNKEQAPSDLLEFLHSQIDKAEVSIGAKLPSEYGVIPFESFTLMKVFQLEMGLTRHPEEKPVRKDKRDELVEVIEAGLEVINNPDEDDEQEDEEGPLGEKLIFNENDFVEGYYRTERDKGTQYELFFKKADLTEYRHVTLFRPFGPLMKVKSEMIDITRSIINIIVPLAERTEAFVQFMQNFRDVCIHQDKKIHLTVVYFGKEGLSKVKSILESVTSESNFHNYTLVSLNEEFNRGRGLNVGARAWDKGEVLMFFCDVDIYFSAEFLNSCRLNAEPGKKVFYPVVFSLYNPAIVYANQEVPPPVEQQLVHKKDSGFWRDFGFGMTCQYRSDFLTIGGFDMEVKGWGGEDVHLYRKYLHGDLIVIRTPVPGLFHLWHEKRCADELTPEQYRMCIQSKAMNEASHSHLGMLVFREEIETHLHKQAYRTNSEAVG
UniProt Q9UBG3: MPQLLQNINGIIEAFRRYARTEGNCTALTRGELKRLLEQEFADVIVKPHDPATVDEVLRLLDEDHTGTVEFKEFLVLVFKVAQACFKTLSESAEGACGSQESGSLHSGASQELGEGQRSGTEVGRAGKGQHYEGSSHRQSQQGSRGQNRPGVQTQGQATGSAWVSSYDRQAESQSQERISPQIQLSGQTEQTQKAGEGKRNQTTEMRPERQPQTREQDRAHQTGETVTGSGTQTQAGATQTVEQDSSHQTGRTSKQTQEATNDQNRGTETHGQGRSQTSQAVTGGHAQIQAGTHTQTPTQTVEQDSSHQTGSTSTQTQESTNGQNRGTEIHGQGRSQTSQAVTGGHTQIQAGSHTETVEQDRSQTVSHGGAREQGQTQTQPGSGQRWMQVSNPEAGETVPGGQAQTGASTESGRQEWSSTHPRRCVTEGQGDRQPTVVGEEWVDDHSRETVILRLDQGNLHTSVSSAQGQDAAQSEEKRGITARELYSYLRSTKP
UniProt Q5TA50: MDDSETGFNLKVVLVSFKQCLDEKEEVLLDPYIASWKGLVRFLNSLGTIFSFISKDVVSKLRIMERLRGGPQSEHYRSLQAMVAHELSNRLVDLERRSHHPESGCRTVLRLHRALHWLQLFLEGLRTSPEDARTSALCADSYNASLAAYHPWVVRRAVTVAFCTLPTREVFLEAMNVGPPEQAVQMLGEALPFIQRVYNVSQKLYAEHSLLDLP
UniProt Q14894: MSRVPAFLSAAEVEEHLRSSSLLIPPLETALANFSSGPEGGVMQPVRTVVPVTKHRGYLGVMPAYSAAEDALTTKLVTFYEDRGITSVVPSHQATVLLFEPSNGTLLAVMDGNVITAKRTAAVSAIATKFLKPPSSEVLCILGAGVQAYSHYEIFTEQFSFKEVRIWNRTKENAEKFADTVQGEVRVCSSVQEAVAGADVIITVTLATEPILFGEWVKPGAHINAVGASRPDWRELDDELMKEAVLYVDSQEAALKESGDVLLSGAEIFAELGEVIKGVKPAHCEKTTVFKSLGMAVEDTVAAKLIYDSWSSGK
UniProt O95639, whole entry, looked up: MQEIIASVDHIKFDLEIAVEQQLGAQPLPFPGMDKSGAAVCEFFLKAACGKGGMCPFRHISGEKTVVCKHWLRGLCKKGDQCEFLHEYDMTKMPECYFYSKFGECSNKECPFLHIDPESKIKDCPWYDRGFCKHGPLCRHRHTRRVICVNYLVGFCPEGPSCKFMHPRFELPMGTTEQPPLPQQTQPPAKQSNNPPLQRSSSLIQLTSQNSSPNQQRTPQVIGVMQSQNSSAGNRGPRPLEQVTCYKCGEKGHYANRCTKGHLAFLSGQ
UniProt Q14061: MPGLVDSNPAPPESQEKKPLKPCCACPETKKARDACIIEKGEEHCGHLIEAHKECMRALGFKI
UniProt Q9Y6M4: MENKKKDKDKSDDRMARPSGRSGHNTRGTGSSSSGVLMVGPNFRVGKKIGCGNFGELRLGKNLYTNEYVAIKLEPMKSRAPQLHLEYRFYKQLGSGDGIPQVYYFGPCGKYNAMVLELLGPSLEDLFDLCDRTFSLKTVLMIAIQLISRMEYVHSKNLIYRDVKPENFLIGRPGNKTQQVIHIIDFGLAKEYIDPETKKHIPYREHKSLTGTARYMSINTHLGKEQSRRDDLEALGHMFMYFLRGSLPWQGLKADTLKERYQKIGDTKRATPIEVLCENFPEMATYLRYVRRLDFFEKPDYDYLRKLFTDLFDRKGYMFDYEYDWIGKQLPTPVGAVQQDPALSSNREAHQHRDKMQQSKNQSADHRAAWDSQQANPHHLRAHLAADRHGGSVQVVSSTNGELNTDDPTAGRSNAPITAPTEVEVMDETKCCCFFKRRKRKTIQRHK
UniProt P00450: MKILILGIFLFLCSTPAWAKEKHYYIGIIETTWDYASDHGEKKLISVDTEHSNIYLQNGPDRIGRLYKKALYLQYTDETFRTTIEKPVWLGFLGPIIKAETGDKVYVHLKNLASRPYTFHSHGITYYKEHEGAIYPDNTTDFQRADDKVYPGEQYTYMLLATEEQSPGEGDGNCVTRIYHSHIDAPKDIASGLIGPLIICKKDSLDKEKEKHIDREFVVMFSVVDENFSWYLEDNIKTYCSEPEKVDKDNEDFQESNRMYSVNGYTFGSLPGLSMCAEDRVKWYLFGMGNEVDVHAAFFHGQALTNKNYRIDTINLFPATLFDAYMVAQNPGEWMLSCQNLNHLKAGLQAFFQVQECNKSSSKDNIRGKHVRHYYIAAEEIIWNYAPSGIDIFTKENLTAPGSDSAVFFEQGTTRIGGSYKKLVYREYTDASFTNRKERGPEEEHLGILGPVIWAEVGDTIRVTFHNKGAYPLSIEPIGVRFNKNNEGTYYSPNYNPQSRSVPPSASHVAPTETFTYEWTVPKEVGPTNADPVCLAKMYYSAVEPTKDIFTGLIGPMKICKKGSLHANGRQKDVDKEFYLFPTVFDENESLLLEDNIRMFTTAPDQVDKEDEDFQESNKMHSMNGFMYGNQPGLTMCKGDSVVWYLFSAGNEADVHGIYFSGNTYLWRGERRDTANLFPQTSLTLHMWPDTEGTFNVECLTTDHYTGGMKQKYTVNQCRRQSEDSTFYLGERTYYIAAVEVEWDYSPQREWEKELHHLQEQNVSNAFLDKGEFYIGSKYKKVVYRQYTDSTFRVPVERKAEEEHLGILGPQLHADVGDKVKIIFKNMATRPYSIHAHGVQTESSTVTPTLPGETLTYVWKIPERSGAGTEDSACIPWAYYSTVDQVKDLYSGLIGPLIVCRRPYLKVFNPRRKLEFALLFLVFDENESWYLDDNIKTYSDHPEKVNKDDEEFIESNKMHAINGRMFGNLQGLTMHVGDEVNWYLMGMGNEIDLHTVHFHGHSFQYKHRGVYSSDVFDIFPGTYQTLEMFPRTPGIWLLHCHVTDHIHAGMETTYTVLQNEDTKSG
UniProt Q14194, whole entry, looked up: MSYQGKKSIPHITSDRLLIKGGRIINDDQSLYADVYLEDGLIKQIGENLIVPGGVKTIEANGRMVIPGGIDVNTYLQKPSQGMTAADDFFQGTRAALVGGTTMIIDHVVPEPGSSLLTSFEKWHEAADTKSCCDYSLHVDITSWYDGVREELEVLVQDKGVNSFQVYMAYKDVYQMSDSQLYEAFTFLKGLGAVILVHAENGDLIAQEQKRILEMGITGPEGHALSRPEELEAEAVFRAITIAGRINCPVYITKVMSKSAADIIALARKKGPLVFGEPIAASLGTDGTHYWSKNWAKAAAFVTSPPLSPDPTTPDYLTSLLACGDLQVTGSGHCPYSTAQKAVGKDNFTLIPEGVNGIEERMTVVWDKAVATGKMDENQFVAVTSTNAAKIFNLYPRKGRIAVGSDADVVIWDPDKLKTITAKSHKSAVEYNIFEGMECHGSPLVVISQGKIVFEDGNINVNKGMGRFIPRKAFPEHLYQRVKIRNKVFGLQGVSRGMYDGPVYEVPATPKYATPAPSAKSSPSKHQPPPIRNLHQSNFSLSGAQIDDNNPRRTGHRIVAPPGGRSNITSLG
UniProt Q9HCP0: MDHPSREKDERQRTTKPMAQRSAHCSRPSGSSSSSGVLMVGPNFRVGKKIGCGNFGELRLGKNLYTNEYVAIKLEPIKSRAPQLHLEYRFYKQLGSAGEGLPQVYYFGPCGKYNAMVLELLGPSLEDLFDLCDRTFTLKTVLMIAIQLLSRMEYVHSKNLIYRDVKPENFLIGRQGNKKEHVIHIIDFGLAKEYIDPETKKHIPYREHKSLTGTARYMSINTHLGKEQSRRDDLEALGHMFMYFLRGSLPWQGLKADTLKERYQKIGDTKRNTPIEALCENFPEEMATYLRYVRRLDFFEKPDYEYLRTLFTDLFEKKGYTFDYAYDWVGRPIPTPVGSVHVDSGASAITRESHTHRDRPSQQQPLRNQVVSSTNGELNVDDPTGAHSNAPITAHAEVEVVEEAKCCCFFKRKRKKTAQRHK
UniProt Q86T23: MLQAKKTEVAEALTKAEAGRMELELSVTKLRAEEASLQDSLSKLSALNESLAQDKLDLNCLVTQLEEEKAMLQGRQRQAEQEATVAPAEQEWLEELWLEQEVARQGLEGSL
UniProt Q9UI42: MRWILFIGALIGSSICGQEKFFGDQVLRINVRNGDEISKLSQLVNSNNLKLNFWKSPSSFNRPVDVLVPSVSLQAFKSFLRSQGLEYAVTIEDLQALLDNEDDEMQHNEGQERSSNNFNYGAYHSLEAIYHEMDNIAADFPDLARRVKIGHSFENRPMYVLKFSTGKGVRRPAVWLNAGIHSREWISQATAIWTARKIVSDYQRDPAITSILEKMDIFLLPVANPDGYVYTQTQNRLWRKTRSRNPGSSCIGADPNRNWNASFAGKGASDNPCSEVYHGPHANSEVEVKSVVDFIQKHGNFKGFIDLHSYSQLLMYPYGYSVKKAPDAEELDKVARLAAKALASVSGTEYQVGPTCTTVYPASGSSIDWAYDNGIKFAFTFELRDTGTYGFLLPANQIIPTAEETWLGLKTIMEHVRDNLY
UniProt P15169: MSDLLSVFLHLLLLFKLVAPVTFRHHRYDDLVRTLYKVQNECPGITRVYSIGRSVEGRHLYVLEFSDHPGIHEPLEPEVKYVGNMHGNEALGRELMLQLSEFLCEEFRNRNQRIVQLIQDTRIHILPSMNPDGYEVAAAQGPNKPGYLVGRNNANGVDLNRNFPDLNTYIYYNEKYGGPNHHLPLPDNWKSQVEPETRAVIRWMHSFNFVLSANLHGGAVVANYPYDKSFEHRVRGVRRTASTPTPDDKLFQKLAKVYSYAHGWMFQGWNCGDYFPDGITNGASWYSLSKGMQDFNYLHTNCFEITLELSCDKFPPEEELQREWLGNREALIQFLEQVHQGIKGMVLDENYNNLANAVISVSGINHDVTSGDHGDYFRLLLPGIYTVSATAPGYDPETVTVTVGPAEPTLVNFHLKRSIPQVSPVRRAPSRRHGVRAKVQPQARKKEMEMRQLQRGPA
UniProt P29373: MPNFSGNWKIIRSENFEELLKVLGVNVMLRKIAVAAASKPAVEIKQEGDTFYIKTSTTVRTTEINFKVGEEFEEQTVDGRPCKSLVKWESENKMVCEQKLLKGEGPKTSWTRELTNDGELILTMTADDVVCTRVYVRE
UniProt Q9BXS0: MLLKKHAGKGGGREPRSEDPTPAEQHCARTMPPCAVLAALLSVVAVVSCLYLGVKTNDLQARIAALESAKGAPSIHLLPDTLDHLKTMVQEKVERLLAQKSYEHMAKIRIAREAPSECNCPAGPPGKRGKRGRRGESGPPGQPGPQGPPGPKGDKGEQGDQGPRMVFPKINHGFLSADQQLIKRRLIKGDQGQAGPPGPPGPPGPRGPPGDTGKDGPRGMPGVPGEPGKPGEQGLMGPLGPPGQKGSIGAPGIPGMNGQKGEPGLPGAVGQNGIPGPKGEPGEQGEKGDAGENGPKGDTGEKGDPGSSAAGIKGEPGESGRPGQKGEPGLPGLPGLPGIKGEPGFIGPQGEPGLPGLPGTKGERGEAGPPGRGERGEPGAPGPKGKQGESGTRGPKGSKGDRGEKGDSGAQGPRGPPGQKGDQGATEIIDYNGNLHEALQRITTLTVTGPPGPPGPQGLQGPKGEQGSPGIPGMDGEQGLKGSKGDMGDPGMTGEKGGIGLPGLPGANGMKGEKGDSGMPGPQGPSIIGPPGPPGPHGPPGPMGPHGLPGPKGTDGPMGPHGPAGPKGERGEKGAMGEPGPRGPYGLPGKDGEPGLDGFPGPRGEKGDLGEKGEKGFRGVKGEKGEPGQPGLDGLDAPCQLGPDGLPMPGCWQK
UniProt P78368: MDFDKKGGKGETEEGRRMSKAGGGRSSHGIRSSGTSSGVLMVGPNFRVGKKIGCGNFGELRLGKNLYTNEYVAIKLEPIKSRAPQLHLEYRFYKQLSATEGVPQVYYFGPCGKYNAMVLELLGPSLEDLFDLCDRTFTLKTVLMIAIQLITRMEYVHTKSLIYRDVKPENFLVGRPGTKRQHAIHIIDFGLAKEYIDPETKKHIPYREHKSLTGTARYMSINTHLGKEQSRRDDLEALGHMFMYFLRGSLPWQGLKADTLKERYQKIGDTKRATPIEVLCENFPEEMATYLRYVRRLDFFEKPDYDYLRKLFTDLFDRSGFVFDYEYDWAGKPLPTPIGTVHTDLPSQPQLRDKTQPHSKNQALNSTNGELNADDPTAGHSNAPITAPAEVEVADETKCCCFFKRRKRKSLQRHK

Assays:
Test in all cases: log2 fold change, soluble protein after heating vs DMSO (PISA); higher = thermal stabilisation; K562 cells, 10 uM, 30 min; active = over 0.2 and 3.5 SD of the protein, either way, in both replicates (recomputed)
[1] = compound: CC[C@H](C)N1C=C(C2=C(C=C(C=C21)C3=CN=C(C=C3)N4CCNCC4)C(=O)NCC5=C(C=C(NC5=O)C)C)C
Method in brief: (§1)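 Thermal stability values are relative to control samples and come from duplicates. They are expressed as log2 fold changes. For measurement, K562 cells (2×10^6 cells/mL) received 10 μM compound for 30 min, and aliquots were heated for 3 min over 48°C-58°C, pooled, and extracted at 4°C in PBS with 0.5% NP-40. Soluble protein, the supernatant after 21,000xg for 90 min, was quantified by TMTpro 16plex LC-MS/MS with equalised channel sums.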

epoxomicin = compound: CC[C@H](C)[C@@H](C(=O)N[C@@H]([C@@H](C)O)C(=O)N[C@@H](CC(C)C)C(=O)[C@]1(CO1)C)NC(=O)[C@H]([C@@H](C)CC)N(C)C(=O)C [epoxomicin]
Method in brief: as §1

rosiglitazone = compound: CN(CCOC1=CC=C(C=C1)C[C@H]2C(=O)NC(=O)S2)C3=CC=CC=N3 (racemic) [rosiglitazone]
Method in brief: as §1

[2] = compound: CCn1c(C(=O)N(C2CC2)C2CC2)cc2c3c(ncn3C)c(Nc3cc(C)n(C)n3)nc21
Method in brief: as §1

[3] = compound: CCn1cc(-c2ccnc3[nH]c(-c4cccc(CN(C)C)c4)cc23)c(-c2ccc(NC(=O)N(C)C)cc2)n1
Method in brief: as §1

[4] = compound: CN(C)CC(=O)Nc1ccc2[nH]c(=O)c3ccccc3c2c1
Method in brief: as §1

[5] = compound: CN1C2=C(C3=C1C(=O)N(N=C3)CC4=CC(=CC=C4)N)SC(=C2)S(=O)C
Method in brief: as §1

[6] = compound: CN1CCC(CNc2ccc3ncc(-c4cccc(OC(F)(F)F)c4)n3n2)CC1
Method in brief: as §1

volasertib = compound: CC[C@@H]1C(=O)N(C)c2cnc(Nc3ccc(C(=O)N[C@H]4CC[C@H](N5CCN(CC6CC6)CC5)CC4)cc3OC)nc2N1C(C)C [volasertib]
Method in brief: as §1

[7] = compound: CC[C@@H]1C(=O)N(C)c2cnc(Nc3ccc(C(=O)NC4CCN(C)CC4)cc3OC)nc2N1C1CCCC1
Method in brief: as §1

Measured: log2 fold change

CSGALNACT2 (UniProt Q8N6G5)
inactive: [1] -0.045 | epoxomicin 0.016 | rosiglitazone -0.205

CPLX1 (UniProt O14810)
inactive: epoxomicin 0.014 | [2] -0.188 | [3] -0.044 | [4] 0.069 | rosiglitazone -0.007 | [5] 0.058 | [6] 0.043

CRNN (UniProt Q9UBG3)
inactive: [2] 0.082 | rosiglitazone 0.247

CPTP (UniProt Q5TA50)
inactive: [2] 0.004

CRTC1 isoform 2 (UniProt Q6UUV9)
inactive: volasertib 0.211 | epoxomicin -0.062 | [3] 0.034 | [4] -0.069 | [5] -0.153 | [6] 0.101

CRYM (UniProt Q14894)
inactive: epoxomicin -0.002 | [2] 0 | [3] -0.481 | [5] -0.281 | [6] 0.022

CPSF4 (UniProt O95639)
inactive: [1] 0.063 | [3] 0.103 | rosiglitazone -0.102 | [6] 0.068

COX17 (UniProt Q14061)
inactive: [1] 0.044 | epoxomicin 0.504 | [3] -0.154 | [4] -0.051 | [5] -0.146 | [6] 0.055

CRADD (UniProt P78560)
inactive: [2] 0.028 | [4] 0.272

CSNK1G3 (UniProt Q9Y6M4)
inactive: volasertib 0.237 | [1] 0.017 | epoxomicin -0.024 | [2] 0.117 | [3] 0.04 | [4] -0.069 | rosiglitazone -0.079 | [5] 0.141 | [6] 0.121

CP (UniProt P00450)
inactive: volasertib 0.147 | rosiglitazone -0.104

CRISP3 isoform 3 (UniProt P54108)
inactive: rosiglitazone -0.276

CSNK1D (UniProt P48730)
inactive: volasertib -0.133 | [1] 0 | epoxomicin 0.026 | [4] -0.019 | [5] 0.15 | [6] 0.315

CPEB2 isoform 9 (UniProt Q7Z5Q1)
inactive: volasertib -0.317 | epoxomicin 0.092 | [2] 0.16 | [4] 0.135 | rosiglitazone 0.084 | [5] 0.051

CRMP1 isoform 2 (UniProt Q14194)
inactive: [1] 0.2 | [3] -0.198 | [4] -0.072 | [5] -0.25 | [6] 0.038

COL2A1 (UniProt P02458)
inactive: [4] -0.136 | [5] 0.156

CSNK1A1 isoform 3 (UniProt P48729)
inactive: volasertib -0.224

CSNK1G1 (UniProt Q9HCP0)
inactive: [1] -0.224 | epoxomicin -0.077 | [2] -0.152 | rosiglitazone -0.076 | [5] 0.132

CRYAB (UniProt P02511)
inactive: [7] 0.433 | epoxomicin 0.077 | [4] 0.131 | [5] 0.332

CRY1 (UniProt Q16526)
inactive: volasertib -0.336 | [1] 0.054 | epoxomicin 0.01 | [3] -0.247 | [4] -0.046 | [6] -0.003

CROCCP2 (UniProt Q86T23)
inactive: [7] 0.042 | [2] -0.05 | rosiglitazone 0.036

CRTC3 (UniProt Q6UUV7)
inactive: volasertib 0.051 | epoxomicin 0.094 | [4] -0.117

COLEC11 isoform 10 (UniProt Q9BWP8)
inactive: [1] 0.01 | epoxomicin -0.116 | [4] -0.041 | rosiglitazone -0.016 | [5] 0.147

COQ10B (UniProt Q9H8M1)
inactive: [7] 0.05 | epoxomicin 0.066 | rosiglitazone 0.035 | [5] 0.094

CORO6 isoform 5 (UniProt Q6QEF8)
inactive: epoxomicin -0.004 | [4] 0.097

COL3A1 (UniProt P02461)
inactive: volasertib 0.199 | epoxomicin -0.038 | [2] 0.06 | [3] -0.016 | [4] -0.176 | [5] 0.104 | [6] 0.24

CPA4 (UniProt Q9UI42)
inactive: [7] 0.284 | [4] 0.809

CREB3L2 (UniProt Q70SY1)
inactive: [1] 0.067 | epoxomicin 0.035 | [4] 0.069

Random excerpt: 3 records from the list.
CP (UniProt P00450)
inactive: volasertib 0.147 | rosiglitazone -0.104

CREB3L2 (UniProt Q70SY1)
inactive: [1] 0.067 | epoxomicin 0.035 | [4] 0.069

COL2A1 (UniProt P02458)
inactive: [4] -0.136 | [5] 0.156

(continued)

CPN1 (UniProt P15169)
inactive: [2] 0.1 | [4] -0.089 | rosiglitazone 0.201 | [5] 0.328

CRABP2 (UniProt P29373)
inactive: epoxomicin 0.116 | [3] 0.271 | [5] 0.175 | [6] 0.038

CRYBB1 (UniProt P53674)
inactive: epoxomicin -0.16 | [2] -0.288 | [5] -0.156

COL25A1 (UniProt Q9BXS0)
inactive: epoxomicin -0.19 | [2] 0.051 | rosiglitazone 0.347

CSNK1G2 (UniProt P78368)
inactive: [1] -0.027 | epoxomicin -0.014 | [3] 0.164 | [6] -0.185

COMMD3-BMI1 (UniProt R4GMX3)
inactive: volasertib 0.038 | [1] 0.062 | epoxomicin 0.026 | [3] 0.006 | [6] -0.105
